Literature values, collected in patent US10918741B2, “PSMA-targeting imaging agents” (THE CLEVELAND CLINIC FOUNDATION, priority 2014, dated 2021).

Test system: malignant tumors
Details: 10 malignant tumors, intravenous ICG; cited from earlier work

Compound: CC1(C)C(/C=C/C=C/C=C/C=C2\N(CCCCS(=O)(=O)O)c3ccc4ccccc4c3C2(C)C)=[N+](CCCCS(=O)(=O)[O-])c2ccc3ccccc3c21 [ICG, indocyanine green]
- malignant tumors hypofluorescent in comparison with the normal parenchyma: 70%
- malignant tumors isofluorescent in comparison with the normal parenchyma: 30%
